Results as given in paper PMC8935233.
These are yes or no findings as the source states them, for the method shown. In cells and extracts the contact can be indirect. Some entries that bind do so weakly or less than the wild type.

Amino acid sequences for entries named in this document (tags omitted).
UniProt Q92786: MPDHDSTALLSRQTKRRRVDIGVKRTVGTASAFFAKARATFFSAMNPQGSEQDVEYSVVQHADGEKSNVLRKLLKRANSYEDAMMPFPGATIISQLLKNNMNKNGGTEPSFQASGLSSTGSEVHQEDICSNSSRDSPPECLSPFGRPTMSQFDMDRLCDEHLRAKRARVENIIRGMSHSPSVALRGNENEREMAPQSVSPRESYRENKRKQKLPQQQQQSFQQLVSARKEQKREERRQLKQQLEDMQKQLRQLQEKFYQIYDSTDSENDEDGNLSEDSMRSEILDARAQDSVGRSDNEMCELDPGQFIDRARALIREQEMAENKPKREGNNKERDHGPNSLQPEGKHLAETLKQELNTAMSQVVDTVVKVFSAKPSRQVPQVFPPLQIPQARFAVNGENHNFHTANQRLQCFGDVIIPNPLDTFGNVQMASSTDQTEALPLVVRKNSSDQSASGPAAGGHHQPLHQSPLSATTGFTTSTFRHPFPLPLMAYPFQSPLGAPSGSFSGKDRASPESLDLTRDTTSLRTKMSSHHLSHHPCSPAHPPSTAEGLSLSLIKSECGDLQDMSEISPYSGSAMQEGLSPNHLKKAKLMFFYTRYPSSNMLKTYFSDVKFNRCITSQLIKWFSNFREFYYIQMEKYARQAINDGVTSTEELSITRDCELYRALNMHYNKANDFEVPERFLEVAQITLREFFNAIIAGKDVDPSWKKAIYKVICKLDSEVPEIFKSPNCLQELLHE

Target: PROX1 (Prospero-related homeobox 1) (human (endogenous in MDA-MB-231)) (UniProt Q92786)
Assay: co-IP; MDA-MB-231 lysate in NP-40 lysis buffer (20 mM Tris-HCl, 150 mM NaCl, 0.5% NP-40, 20% glycerol), 4 ug antibody and 50 ul protein A/G magnetic beads; Western blotting

binding: binds
Substance: Heterogeneous ribonucleoprotein K (hnRNPK) (from UniProt P61978 1-463)
